Test [1] concerns the target Recombinant human IFN-λ (human) (UniProt Q9P0W0). Put plainly: Western blot.
For test [2] the target is unchanged. Nature of the test: Western blot. The source holds these as a separate data set.

Sequences of proteins named here, by UniProt entry; tags and fusion partners are left off. A change or cut given only in a name is not applied to a line headed by its entry.
UniProt Q9P0W0: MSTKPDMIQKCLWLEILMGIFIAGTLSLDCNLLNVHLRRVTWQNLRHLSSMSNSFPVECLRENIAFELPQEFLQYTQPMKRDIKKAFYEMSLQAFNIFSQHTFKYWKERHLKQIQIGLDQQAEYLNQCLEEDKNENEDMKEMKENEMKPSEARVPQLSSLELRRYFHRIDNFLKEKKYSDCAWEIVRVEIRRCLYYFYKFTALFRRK

Where two headings read alike, the source gives them in different places. Results are given in words; binding and its absence hold for the method and conditions named.

B1: Human anti-human IL-21 monoclonal antibody clone 366.552.11 (antibody, V domains shown)
VH: QVQLQESGPGLVKPSETLSLTCTVSGGSISSDFWGWIRQPPGKGLEWIGYISSRGSTNYNPSLKRRVTISVDTSRNQFSLKLSSVTAADTAVYYCARSAGVTDFDFWGQGTLVTVSS
VL: DIQMTQSPSSVSASVGDRVTITCRASQGISSWLAWYQHKPGKAPKLLIYVASSLQSGVPSRFSGSGSGTDFTLTISSLQPEDFATYYCQQANSFPLTFGGGTKVEIK
For B1, the binding entry in test [1] is on record as “no binding (tested: 10 ng/ml or 100 ng/ml)”; in test [2] it was “no binding”.

B2: Human anti-human IL-21 monoclonal antibody clone 366.328.10 (antibody, V domains shown)
VH: EVQLVESGGGLVKPGGSLRLSCAASGFIFSSYSMNWVRQAPGKGLEWVSSITSGSYYIHYADSVKGRFTISRDNAKNSLYLQMNSLRAEDTAVYYCVRERGWGYYGMDVWGQGTTVTVSS
VL: AIQLTQSPSSLSASVGDRVTITCRASQDIDSALAWYQQKPGKAPKILIHDASSLESGVPSRFSGSGSGTDFTLTISSLQPEDFATYYCQQFNSYPYTFGQGTKLEIK
Turning to B2, the results for the binding entry in test [1] and in test [2] were “no binding (tested: 10 ng/ml or 100 ng/ml)” and “no binding”, respectively.
